{
  "source": "patent US9725423B2",
  "about": "“Tetrazolinone compound and applications thereof” (SUMITOMO CHEMICAL COMPANY, LIMITED, priority 2012, dated 2017)",
  "note": "Some results were stated once for a whole list of compounds, not compound by compound.",
  "data": [
    {"tested_on": "wheat rust fungus (Puccinia recondita)", "test": "Wheat rust control test, foliar spray on wheat (Test Examples 2, 8)", "type": "in vivo", "details": "200 ppm, wheat (SHIROGANE), inoculated 5 days after spraying", "units": {"area of lesion spots relative to that on an untreated plant": "%"}, "values": [
      {"compound": "CC(=NOCc1c(C2CC2)cccc1-n1nnn(C)c1=O)c1ccc2c(c1)CCCC2", "note": "[present compound 106, 1-{3-cyclopropyl-2-[1-(5,6,7,8-tetrahydronaphthalen-2-yl)ethylideneaminooxymethyl]phenyl}-4-methyl-1,4-dihydrotetrazol-5-one]", "area of lesion spots relative to that on an untreated plant": "≤ 30"},
      {"compound": "CC(=NOCc1c(C2CC2)cccc1-n1nnn(C)c1=O)c1cccc2c1CCC2", "note": "[present compound 125, 1-[3-cyclopropyl-2-(1-indan-4-ylethylideneaminooxymethyl)phenyl]-4-methyl-1,4-dihydrotetrazol-5-one]", "area of lesion spots relative to that on an untreated plant": "≤ 30"},
      {"compound": "CCC(=NOCc1c(C2CC2)cccc1-n1nnn(C)c1=O)c1cccc(C(F)(F)F)c1", "note": "[present compound 100, 1-{3-cyclopropyl-2-[1-(3-trifluoromethylphenyl)propylideneaminooxymethyl]phenyl}-4-methyl-1,4-dihydrotetrazol-5-one]", "area of lesion spots relative to that on an untreated plant": "≤ 30"},
      {"compound": "COc1cccc(-n2nnn(C)c2=O)c1CON=C(C)c1ccc2c(c1)CCCC2", "note": "[present compound 105, 1-{3-methoxy-2-[1-(5,6,7,8-tetrahydronaphthalen-2-yl)ethylideneaminooxymethyl]phenyl}-4-methyl-1,4-dihydrotetrazol-5-one]", "area of lesion spots relative to that on an untreated plant": "≤ 30"},
      {"compound": "CC(=NOCc1c(C)cccc1-n1nnn(C)c1=O)c1cc(Cl)cc(Cl)c1", "note": "[present compound 39, 1-{3-methyl-2-[1-(3,5-dichlorophenyl)ethylideneaminooxymethyl]phenyl}-4-methyl-1,4-dihydrotetrazol-5-one]", "area of lesion spots relative to that on an untreated plant": "≤ 30"},
      {"compound": "CON=C(C(C)=NOCc1c(C)cccc1-n1nnn(C)c1=O)c1ccc(Cl)cc1", "note": "[present compound 213, 1-(4-chlorophenyl)propane-1,2-dione-2-{O-[2-methyl-6-(4-methyl-5-oxo-4,5-dihydrotetrazol-1-yl)benzyl]oxime}-1-(O-methyloxime)]", "area of lesion spots relative to that on an untreated plant": "≤ 30"},
      {"compound": "CCC#CCOc1cccc(C(C)=NOCc2c(C)cccc2-n2nnn(C)c2=O)c1", "note": "[present compound 88, 1-(3-methyl-2-{1-[3-(pentyn-2-yloxy)phenyl]ethylideneaminooxymethyl}phenyl)-4-methyl-1,4-dihydrotetrazol-5-one]", "area of lesion spots relative to that on an untreated plant": "≤ 30"},
      {"compound": "CSc1cccc(-n2nnn(C)c2=O)c1CON=C(C)c1cccc(C(F)(F)F)c1", "note": "[present compound 92, 1-{3-methylthio-2-[1-(3-trifluoromethylphenyl)ethylideneaminooxymethyl]phenyl}-4-methyl-1,4-dihydrotetrazol-5-one]", "area of lesion spots relative to that on an untreated plant": "≤ 30"},
      {"compound": "CC(=O)N(C)c1cccc(C(C)=NOCc2c(C)cccc2-n2nnn(C)c2=O)c1", "note": "[present compound 75, N-methyl-N-(3-{1-[2-methyl-6-(4-methyl-5-oxo-4,5-dihydrotetrazol-1-yl)benzyloxyimino]ethyl}phenyl)acetamide]", "area of lesion spots relative to that on an untreated plant": "≤ 30"},
      {"compound": "CC(C=Cc1ccc(Cl)cc1)=NOCc1c(C)cccc1-n1nnn(C)c1=O", "note": "[present compound 206, 1-{2-[3-(4-chlorophenyl)-1-methylallylideneaminooxymethyl)-3-methylphenyl]-4-methyl-1,4-dihydrotetrazol-5-one]", "area of lesion spots relative to that on an untreated plant": "≤ 30"},
      {"compound": "CC(=NOCc1c(C)cccc1-n1nnn(C)c1=O)c1cccc(I)c1", "note": "[present compound 78, 1-{3-methyl-2-[1-(3-iodophenyl)ethylideneaminooxymethyl]phenyl}-4-methyl-1,4-dihydrotetrazol-5-one]", "area of lesion spots relative to that on an untreated plant": "≤ 30"},
      {"compound": "CCC(=NOCc1c(C)cccc1-n1nnn(C)c1=O)c1cc(F)cc(C(F)(F)F)c1", "note": "[present compound 99, 1-{3-methyl-2-[1-(3-fluoro-5-trifluoromethylphenyl)propylideneaminooxymethyl]phenyl}-4-methyl-1,4-dihydrotetrazol-5-one]", "area of lesion spots relative to that on an untreated plant": "≤ 30"},
      {"compound": "CCC(=NOCc1c(C2CC2)cccc1-n1nnn(C)c1=O)c1cccc(OC(F)(F)F)c1", "note": "[present compound 120, 1-{3-cyclopropyl-2-[1-(3-trifluoromethoxyphenyl)propylideneaminooxymethyl]phenyl}-4-methyl-1,4-dihydrotetrazol-5-one]", "area of lesion spots relative to that on an untreated plant": "≤ 30"},
      {"compound": "CC(=NOCc1c(C2CC2)cccc1-n1nnn(C)c1=O)c1cc(Cl)cc(Cl)c1", "note": "[present compound 61, 1-{3-cyclopropyl-2-[1-(3,5-dichlorophenyl)ethylideneaminooxymethyl]phenyl}-4-methyl-1,4-dihydrotetrazol-5-one]", "area of lesion spots relative to that on an untreated plant": "≤ 30"},
      {"compound": "CC(=NOCc1c(C2CC2)cccc1-n1nnn(C)c1=O)c1ccc2c(c1)OCO2", "note": "[present compound 90, 1-[2-(1-benzo[1,3]dioxan-5-yl-ethylideneaminooxymethyl)-3-cyclopropylphenyl]-4-methyl-1,4-dihydrotetrazol-5-one]", "area of lesion spots relative to that on an untreated plant": "≤ 30"}
    ]},
    {"tested_on": "wheat rust fungus (Puccinia recondita)", "test": "Wheat rust control test, foliar spray on wheat (Test Examples 2, 8)", "type": "in vivo", "details": "500 ppm, wheat (SHIROGANE), inoculated 5 days after spraying", "units": {"area of lesion spots relative to that on an untreated plant": "%"}, "values": [
      {"compound": "CC(=NOCc1c(C)cccc1-n1nnn(C)c1=O)c1cc(C)cc(C)c1", "note": "[present compound 38, 1-{3-methyl-2-[1-(3,5-dimethylphenyl)ethylideneaminooxymethyl]phenyl}-4-methyl-1,4-dihydrotetrazol-5-one]", "area of lesion spots relative to that on an untreated plant": "≤ 30"}
    ]},
    {"tested_on": "rice blast fungus (Magnaporthe grisea)", "test": "not given", "type": "in vivo", "details": "200 ppm, foliar spray, rice (NIHONBARE), 6 days contact with infected seedlings", "units": {"lesion area with respect to the lesion area on the non-treated plant": "%"}, "values": [
      {"compound": "Cc1cccc(-n2nnn(C)c2=O)c1CON=C(c1cccc(C(F)(F)F)c1)C(C)C", "note": "[present compound 73, 1-methyl-4-{3-methyl-2-[2-methyl-1-(3-trifluoromethylphenyl)propylideneaminooxymethyl]phenyl}-4-methyl-1,4-dihydrotetrazol-5-one]", "lesion area with respect to the lesion area on the non-treated plant": "≤ 30"},
      {"compound": "CC(=NOCc1c(C)cccc1-n1nnn(C)c1=O)c1cccc2ccccc12", "note": "[present compound 95, 1-{3-methyl-2-[1-(naphthalen-1-yl)ethylideneaminooxymethyl]-phenyl}-4-methyl-1,4-dihydrotetrazol-5-one]", "lesion area with respect to the lesion area on the non-treated plant": "≤ 30"},
      {"compound": "CC(=NOCc1c(Cl)cccc1-n1nnn(C)c1=O)c1cccc(OC(F)(F)C(F)F)c1", "note": "[present compound 9, 1-(3-chloro-2-{1-[3-(1,1,2,2-tetrafluoroethoxyl)phenyl]ethylideneaminooxymethyl]phenyl}-4-methyl-1,4-dihydrotetrazol-5-one]", "lesion area with respect to the lesion area on the non-treated plant": "≤ 30"},
      {"compound": "CC(=NOCc1c(C)cccc1-n1nnn(C)c1=O)c1noc2cc(F)ccc12", "note": "[present compound 260, 1-{2-[1-(6-fluorobenzo[d]isoxazol-3-yl)ethylideneaminooxymethyl]-3-methylphenyl}-4-methyl-1,4-dihydrotetrazol-5-one]", "lesion area with respect to the lesion area on the non-treated plant": "≤ 30"},
      {"compound": "CC(=NOCc1c(C2CC2)cccc1-n1nnn(C)c1=O)c1cc(C)cc(C)c1", "note": "[present compound 60, 1-{3-cyclopropyl-2-[1-(3,5-dimethylphenyl)ethylideneaminooxymethyl]phenyl}-4-methyl-1,4-dihydrotetrazol-5-one]", "lesion area with respect to the lesion area on the non-treated plant": "≤ 30"},
      {"compound": "CC(=NOCc1c(Cl)cccc1-n1nnn(C)c1=O)c1cccc(C(F)(F)F)c1", "note": "[present compound 23, 1-{3-chloro-2-[1-(3-trifluoromethylphenyl)ethylideneaminooxymethyl]phenyl}-4-methyl-1,4-dihydrotetrazol-5-one]", "lesion area with respect to the lesion area on the non-treated plant": "≤ 30"},
      {"compound": "CC(=NOCc1c(Cl)cccc1-n1nnn(C)c1=O)c1cccc([N+](=O)[O-])c1", "note": "[present compound 6, 1-{3-chloro-2-[1-(3-nitrophenyl)ethylideneaminooxymethyl]phenyl}-4-methyl-1,4-dihydrotetrazol-5-one]", "lesion area with respect to the lesion area on the non-treated plant": "≤ 30"},
      {"compound": "CC(=NOCc1c(C2CC2)cccc1-n1nnn(C)c1=O)c1cccc(OC(F)(F)C(F)F)c1", "note": "[present compound 55, 1-(3-cyclopropyl-2-{1-[3-(1,1,2,2-tetrafluoroethoxyl)phenyl]ethylideneaminooxymethyl}phenyl)-4-methyl-1,4-dihydrotetrazol-5-one]", "lesion area with respect to the lesion area on the non-treated plant": "≤ 30"},
      {"compound": "CC(=NOCc1c(C)cccc1-n1nnn(C)c1=O)c1ccc(F)c(Br)c1", "note": "[present compound 65, 1-{3-methyl-2-[1-(3-bromo-4-fluorophenyl)ethylideneaminooxymethyl]phenyl}-4-methyl-1,4-dihydrotetrazol-5-one]", "lesion area with respect to the lesion area on the non-treated plant": "≤ 30"}
    ]},
    {"tested_on": "rice blast fungus (Magnaporthe grisea)", "test": "not given", "type": "in vivo", "details": "500 ppm, foliar spray, rice (NIHONBARE), 6 days contact with infected seedlings", "units": {"lesion area with respect to the lesion area on the non-treated plant": "%"}, "values": [
      {"compound": "COc1ccc(C(C)=NOCc2c(C)cccc2-n2nnn(C)c2=O)cc1C(F)(F)F", "note": "[present compound 139, 1-{2-[1-(4-methoxy-3-trifluoromethylphenyl)ethylideneaminooxymethy 1]-3-methylphenyl}-4-methyl-1,4-dihydrotetrazol-5-one]", "lesion area with respect to the lesion area on the non-treated plant": "≤ 30"},
      {"compound": "CC(=NOCc1c(C)cccc1-n1nnn(C)c1=O)c1cccc([N+](=O)[O-])c1", "note": "[present compound 37, 1-{3-methyl-2-[1-(3-nitrophenyl)ethylideneaminooxymethyl]phenyl}-4-methyl-1,4-dihydrotetrazol-5-one]", "lesion area with respect to the lesion area on the non-treated plant": "≤ 30"},
      {"compound": "COc1ccccc1C(C)=NOCc1c(C)cccc1-n1nnn(C)c1=O", "note": "[present compound 97, 1-{3-methyl-2-[1-(2-methoxyphenyl)ethylideneaminooxymethyl]phenyl}-4-methyl-1,4-dihydrotetrazol-5-one]", "lesion area with respect to the lesion area on the non-treated plant": "≤ 30"},
      {"compound": "CC(=NOCc1c(C)cccc1-n1nnn(C)c1=O)c1cccc(Cl)c1C", "note": "[present compound 133, 1-{2-[1-(3-chloro-2-methylphenyl)ethylideneaminooxymethyl]-3-methylphenyl}-4-methyl-1,4-dihydrotetrazol-5-one]", "lesion area with respect to the lesion area on the non-treated plant": "≤ 30"},
      {"compound": "CC(=NOCc1c(C)cccc1-n1nnn(C)c1=O)c1cccc(OC(F)(F)F)c1", "note": "[present compound 32, 1-{3-methyl-2-[1-(3-trifluoromethoxyphenyl)ethylideneaminooxymethyl]phenyl}-4-methyl-1,4-dihydrotetrazol-5-one]", "lesion area with respect to the lesion area on the non-treated plant": "≤ 30"}
    ]}
  ]
}
